Test results as given in US5554640A, “Use of propanolamine derivatives as selective 5-HT1 antagonists” (Eli Lilly and Company, priority 1995, dated 1996).

Target: T1, serotonin-1A receptor (5-HT1A) (Rattus norvegicus, UniProt P19327)
T1 sequence (P19327 1-422): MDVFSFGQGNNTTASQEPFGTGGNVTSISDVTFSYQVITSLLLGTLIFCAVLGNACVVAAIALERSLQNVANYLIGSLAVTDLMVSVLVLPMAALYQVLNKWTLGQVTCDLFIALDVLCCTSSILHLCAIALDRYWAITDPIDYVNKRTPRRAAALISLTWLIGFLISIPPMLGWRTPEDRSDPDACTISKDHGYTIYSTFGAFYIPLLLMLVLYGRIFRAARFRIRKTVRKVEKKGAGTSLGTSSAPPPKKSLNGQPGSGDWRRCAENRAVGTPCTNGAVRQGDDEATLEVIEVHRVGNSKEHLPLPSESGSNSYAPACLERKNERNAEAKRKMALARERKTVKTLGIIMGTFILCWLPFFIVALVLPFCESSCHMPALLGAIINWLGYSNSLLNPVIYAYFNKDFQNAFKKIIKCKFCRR
Assay: biochemical
Set-up: species or system rat (Sprague-Dawley)
Details: inhibition of 0.4 nM 3H-8OHDPAT binding, rat cortical membranes, 28 C, 30 minutes, pH 7.4
Method: The compounds of this invention were evaluated in the following tests systems.
Procedure for radioligand receptor assays--Male Sprague-Dawley rats weighing 110-150 g were decapitated and brains were immediately removed. Bovine brains were quickly removed from calf in the slaughterhouse. Cerebral cortices were dissected out at 4° C. and homogenized in 0.32M sucrose. After centrifugation at 1000×g for 10 minutes and then 17,000×g for 20 minutes, a crude synaptosomal fraction was sedimented. The pellet was suspended in 100 volumes of 50 mM tris-HCl buffered at pH 7.4, incubated at 37° C. for 10 minutes, and centrifuged at 50,000×g for 10 minutes. The process was repeated and the final pellet was suspended in ice-chilled 50 mM tris-HCl buffered at pH 7.4.
Binding of ^3 H-8-hydroxy-2- (di-n-propylamino) tetralin(3H-80HDPAT) to serotonin-1A receptor was performed according to the method described by Wong et al., J. Neural Transm. , 71, 207 (1988). […] Radioactivity was measured with a liquid scintillation spectrometer. Specific binding of 3H-80HDPAT is defined as the difference of radioactivity bound in the absence and in the presence of 10 μM spiperone.

Q: Which IC50 does the source give for `CC(C)NCC(O)COc1cccc2ccccc12` (stereo not shown) [propranolol, reference compound] here?
A: 0.1 µM
